These are yes or no findings as the source states them, for the method shown. In cells and extracts the contact can be indirect. Some entries that bind do so weakly or less than the wild type.
Target: Hoxa3-FLAG (UniProt P02831)
Assay: co-IP; HEK293T cells co-transfected with HA- and FLAG-tagged expression vectors, with empty pcDNA3 or with MEIS (Meis1) and PBX (Pbx1) vectors; proteins collected 48 h after transfection; anti-FLAG M2 antibody on Dynabeads Protein G; western blot of input and CoIP

Amino acid sequences for entries named in this document (tags omitted).
UniProt P02831: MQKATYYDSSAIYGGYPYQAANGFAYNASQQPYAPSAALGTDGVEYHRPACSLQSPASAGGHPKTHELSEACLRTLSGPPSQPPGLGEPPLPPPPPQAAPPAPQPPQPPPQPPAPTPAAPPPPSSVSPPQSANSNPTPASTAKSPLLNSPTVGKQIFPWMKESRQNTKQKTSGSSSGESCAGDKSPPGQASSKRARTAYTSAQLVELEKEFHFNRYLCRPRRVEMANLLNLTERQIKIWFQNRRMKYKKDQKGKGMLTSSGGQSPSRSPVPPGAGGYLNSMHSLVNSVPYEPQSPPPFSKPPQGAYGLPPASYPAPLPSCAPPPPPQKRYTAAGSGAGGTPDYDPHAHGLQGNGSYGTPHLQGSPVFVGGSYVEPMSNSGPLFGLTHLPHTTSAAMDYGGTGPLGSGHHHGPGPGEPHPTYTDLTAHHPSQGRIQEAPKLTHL
UniProt P31245: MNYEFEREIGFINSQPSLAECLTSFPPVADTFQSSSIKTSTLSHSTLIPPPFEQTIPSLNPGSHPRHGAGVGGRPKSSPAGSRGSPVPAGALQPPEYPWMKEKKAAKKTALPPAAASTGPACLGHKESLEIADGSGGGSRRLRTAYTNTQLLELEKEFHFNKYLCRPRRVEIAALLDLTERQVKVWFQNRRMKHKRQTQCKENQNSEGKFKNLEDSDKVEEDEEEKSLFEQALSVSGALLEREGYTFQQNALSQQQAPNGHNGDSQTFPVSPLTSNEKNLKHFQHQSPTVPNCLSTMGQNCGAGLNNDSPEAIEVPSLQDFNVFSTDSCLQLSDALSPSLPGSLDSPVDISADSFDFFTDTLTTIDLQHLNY

## Hoxa2-HA (from UniProt P31245 1-372)
  binding: binds

Source: PMC8707757
